The supplement of paper PMC12067093, “Discovery and optimisation of a covalent ligand for TRIM25 and its application to targeted protein ubiquitination” (Chemical Science, 2025)
Some of the results follow.

Protein sequences, listed by entry. Tags and fused reporters are not part of them. Lines headed by an entry give the natural chain unless they say otherwise; changes in a name come on top.
UniProt Q9UBF2: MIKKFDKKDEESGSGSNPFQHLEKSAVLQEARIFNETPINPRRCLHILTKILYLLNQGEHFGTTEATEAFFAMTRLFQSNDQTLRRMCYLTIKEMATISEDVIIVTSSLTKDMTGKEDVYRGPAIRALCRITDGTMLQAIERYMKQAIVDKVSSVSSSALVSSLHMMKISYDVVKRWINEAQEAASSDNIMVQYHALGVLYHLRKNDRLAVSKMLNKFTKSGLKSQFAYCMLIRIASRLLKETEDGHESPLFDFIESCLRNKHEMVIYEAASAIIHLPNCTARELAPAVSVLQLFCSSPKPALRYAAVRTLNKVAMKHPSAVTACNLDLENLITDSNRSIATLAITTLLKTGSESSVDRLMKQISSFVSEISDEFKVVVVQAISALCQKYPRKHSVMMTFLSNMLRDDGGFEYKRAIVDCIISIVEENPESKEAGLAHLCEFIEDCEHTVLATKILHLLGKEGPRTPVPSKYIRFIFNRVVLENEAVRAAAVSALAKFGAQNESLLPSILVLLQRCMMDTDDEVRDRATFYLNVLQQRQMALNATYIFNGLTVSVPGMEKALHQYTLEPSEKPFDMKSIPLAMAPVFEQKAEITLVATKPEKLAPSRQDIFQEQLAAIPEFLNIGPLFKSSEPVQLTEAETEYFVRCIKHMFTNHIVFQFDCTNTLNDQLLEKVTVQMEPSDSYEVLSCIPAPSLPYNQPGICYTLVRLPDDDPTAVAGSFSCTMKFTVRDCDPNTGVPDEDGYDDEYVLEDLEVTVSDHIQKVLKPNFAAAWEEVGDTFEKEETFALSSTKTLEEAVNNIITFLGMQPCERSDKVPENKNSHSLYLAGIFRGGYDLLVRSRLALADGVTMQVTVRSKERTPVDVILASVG
UniProt P21964: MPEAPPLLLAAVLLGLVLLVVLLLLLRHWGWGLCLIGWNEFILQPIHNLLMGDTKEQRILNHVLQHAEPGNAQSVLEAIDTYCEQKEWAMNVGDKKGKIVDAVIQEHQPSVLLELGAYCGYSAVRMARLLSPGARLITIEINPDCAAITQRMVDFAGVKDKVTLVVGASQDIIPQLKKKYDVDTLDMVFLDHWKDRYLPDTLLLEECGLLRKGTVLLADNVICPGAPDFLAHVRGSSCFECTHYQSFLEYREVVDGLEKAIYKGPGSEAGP
UniProt Q8NFW8: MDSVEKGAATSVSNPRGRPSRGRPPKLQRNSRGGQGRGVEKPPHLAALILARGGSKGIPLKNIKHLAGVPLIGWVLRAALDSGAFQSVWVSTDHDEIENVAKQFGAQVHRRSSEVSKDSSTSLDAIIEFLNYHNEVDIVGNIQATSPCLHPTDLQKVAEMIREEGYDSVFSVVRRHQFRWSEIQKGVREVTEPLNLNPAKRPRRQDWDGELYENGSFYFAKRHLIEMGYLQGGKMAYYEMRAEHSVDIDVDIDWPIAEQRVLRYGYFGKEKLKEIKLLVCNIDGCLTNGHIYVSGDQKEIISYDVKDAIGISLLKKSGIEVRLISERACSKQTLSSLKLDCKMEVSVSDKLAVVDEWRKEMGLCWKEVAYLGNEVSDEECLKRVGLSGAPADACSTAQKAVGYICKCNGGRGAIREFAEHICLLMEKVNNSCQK
UniProt Q9H9Q2: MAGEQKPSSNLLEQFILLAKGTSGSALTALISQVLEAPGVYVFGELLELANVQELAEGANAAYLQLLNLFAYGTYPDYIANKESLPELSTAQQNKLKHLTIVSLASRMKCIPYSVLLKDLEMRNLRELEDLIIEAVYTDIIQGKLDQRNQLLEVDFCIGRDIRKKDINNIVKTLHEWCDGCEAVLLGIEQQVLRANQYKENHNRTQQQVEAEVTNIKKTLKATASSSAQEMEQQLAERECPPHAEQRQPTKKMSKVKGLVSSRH
UniProt P53621: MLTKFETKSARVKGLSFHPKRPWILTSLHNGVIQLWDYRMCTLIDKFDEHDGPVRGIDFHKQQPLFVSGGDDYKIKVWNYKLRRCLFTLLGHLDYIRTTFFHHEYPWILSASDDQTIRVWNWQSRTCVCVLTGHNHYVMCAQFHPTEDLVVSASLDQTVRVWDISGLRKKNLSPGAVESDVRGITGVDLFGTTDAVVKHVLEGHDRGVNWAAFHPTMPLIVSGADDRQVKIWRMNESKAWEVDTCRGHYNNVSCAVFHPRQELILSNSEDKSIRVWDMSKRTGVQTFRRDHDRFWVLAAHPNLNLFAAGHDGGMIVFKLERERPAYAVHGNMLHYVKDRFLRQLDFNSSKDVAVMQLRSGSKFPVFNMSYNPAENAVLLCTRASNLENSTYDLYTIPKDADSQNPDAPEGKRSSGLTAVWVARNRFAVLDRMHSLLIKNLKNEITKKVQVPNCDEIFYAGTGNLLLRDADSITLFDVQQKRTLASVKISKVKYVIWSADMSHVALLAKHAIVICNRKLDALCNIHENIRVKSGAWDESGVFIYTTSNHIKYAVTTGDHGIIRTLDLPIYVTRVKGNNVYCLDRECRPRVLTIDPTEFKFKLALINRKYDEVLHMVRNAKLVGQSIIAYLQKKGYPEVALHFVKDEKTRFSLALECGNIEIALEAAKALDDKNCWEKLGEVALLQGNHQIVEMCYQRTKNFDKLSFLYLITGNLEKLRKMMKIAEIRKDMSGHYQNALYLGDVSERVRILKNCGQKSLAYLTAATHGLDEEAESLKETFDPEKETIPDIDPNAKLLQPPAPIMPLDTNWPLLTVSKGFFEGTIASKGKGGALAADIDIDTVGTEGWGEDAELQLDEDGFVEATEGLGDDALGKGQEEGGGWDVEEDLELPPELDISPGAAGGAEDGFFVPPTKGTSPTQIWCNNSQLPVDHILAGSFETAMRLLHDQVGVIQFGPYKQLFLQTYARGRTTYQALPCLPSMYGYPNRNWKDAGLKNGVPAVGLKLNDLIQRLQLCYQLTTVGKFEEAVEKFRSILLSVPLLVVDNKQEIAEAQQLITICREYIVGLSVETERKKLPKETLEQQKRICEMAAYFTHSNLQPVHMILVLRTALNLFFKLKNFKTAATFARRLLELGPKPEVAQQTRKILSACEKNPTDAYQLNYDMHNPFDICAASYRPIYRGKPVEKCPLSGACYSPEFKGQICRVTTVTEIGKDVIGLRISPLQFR
UniProt P49747: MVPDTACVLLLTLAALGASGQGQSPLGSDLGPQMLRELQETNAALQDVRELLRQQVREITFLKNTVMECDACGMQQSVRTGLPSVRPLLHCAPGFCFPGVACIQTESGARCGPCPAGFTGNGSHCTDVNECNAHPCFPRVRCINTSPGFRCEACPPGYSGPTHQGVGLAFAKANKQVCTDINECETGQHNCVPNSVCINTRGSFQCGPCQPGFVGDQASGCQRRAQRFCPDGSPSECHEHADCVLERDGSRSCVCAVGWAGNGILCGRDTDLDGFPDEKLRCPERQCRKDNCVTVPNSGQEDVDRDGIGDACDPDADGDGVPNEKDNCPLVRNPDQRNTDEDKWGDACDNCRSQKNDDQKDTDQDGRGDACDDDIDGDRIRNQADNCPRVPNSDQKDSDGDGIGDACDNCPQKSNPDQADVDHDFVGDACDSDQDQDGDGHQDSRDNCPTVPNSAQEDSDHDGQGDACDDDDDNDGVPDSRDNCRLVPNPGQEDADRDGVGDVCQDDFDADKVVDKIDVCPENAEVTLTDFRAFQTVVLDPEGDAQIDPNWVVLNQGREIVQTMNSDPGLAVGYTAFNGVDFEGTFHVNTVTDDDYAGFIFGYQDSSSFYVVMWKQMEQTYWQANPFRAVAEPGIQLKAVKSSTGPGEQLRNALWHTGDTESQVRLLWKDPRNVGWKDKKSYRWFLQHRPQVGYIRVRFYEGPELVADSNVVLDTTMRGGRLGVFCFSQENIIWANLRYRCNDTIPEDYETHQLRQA
UniProt Q8NHY2, whole entry: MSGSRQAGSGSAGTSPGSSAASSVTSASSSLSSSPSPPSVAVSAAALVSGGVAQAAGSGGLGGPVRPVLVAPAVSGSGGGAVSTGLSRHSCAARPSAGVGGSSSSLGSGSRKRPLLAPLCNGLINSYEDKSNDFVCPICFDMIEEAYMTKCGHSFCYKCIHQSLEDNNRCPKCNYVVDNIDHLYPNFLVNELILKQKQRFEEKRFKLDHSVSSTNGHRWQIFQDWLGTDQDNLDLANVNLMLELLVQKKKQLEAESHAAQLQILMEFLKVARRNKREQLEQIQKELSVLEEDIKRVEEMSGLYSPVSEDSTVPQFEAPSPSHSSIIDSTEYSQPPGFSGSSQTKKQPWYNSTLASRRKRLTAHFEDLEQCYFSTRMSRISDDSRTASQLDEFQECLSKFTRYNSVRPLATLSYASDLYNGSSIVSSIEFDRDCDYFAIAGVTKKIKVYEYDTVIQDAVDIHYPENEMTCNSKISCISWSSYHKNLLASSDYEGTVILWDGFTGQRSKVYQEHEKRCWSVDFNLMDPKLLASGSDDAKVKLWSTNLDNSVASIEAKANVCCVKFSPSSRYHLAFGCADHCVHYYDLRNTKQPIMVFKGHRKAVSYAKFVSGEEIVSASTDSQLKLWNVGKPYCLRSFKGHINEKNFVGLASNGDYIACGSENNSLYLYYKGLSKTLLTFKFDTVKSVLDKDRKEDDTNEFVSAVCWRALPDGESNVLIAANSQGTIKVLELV
UniProt Q86VU5: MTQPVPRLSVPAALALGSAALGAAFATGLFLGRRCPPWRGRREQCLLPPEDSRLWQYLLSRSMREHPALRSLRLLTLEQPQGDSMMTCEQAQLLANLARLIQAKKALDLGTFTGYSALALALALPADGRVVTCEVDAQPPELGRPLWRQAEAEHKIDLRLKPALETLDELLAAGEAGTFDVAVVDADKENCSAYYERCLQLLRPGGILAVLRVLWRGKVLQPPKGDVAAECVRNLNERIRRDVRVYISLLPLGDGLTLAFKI
UniProt Q9Y2B0: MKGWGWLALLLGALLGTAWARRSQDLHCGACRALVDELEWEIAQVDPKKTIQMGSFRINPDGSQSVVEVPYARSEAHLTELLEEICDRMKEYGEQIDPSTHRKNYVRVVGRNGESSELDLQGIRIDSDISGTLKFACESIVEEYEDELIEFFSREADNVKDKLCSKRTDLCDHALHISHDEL
UniProt Q6PJW8: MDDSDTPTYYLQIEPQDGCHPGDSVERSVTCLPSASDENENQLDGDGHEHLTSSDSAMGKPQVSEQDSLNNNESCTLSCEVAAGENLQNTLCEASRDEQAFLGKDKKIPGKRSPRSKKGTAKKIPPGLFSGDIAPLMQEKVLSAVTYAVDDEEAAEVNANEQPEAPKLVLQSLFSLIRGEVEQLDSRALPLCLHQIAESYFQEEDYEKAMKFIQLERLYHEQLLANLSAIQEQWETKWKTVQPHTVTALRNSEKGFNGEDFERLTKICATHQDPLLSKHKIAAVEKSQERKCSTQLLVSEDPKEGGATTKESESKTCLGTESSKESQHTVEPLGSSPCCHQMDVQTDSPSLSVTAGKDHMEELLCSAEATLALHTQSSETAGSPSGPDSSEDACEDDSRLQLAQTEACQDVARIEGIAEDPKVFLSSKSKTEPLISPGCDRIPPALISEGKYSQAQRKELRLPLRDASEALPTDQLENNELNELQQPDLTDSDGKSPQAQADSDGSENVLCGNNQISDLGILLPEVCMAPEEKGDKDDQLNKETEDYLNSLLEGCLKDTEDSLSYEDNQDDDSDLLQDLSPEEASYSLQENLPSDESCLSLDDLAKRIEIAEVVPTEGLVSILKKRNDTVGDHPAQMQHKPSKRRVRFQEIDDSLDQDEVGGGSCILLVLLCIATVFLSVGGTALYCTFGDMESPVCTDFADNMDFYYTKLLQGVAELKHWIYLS
UniProt Q9UBI1, whole entry, looked up: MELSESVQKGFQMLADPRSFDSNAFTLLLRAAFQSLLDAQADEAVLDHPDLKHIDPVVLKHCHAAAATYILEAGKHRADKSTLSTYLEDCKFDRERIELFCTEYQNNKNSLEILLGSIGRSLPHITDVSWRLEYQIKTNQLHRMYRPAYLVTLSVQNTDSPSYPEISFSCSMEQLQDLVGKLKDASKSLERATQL
UniProt P09543: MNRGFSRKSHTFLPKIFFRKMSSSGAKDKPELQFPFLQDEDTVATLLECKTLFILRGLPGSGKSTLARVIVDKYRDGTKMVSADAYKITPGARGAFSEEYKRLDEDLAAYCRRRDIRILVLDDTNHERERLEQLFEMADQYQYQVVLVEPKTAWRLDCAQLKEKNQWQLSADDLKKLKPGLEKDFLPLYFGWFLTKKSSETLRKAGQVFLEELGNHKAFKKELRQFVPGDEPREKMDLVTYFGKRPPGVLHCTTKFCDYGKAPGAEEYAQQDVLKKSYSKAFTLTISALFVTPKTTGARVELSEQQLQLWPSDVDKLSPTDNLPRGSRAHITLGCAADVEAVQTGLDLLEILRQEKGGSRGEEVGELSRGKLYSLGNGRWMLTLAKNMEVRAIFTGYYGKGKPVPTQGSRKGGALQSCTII
UniProt P62633: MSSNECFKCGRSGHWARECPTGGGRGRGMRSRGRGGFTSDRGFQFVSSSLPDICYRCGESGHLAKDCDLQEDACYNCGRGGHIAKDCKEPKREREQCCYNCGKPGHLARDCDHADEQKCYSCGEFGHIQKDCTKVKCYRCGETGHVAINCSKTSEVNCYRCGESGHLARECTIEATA

Compound: CC1Cc2ccccc2N1C(=O)C1CCCN(C1)C(=O)CCl (mixture of isomers) [TRIM25 ligand 11 (diastereomer mixture)]
Assay: probe-labelled cysteine peptide fold change vs DMSO (competition) (log2 fold change); higher = less target engagement (more negative = stronger competition)
Settings: THP-1, incubation time: 4 h
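Further: competitive chemoproteomic profiling in live THP-1 cells with an iodoacetamide desthiobiotin (IA-DTB) probe, comparing probe-labelled peptide intensities in compound-treated cells against DMSO-treated controls.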

Target | probe-labelled cysteine peptide fold change (10 µM) | probe-labelled cysteine peptide fold change (50 µM)
COPG2_Q9UBF2_440+446_EAGLAHLCEFIEDCEHTVLATK (UniProt Q9UBF2) | -0.0177 | 0.031
CNOT10_Q9H9A5_665_CLHQAASMIHPK (UniProt Q9H9A5) | -0.0712 | -0.0399
COPS4_Q9BT78_70_QLLTDFCTHLPNLPDSTAK (UniProt Q9BT78) | -0.14 | -0.0838
CNOT1_A5YKK6_1287_FEIEVLCK (UniProt A5YKK6) | 0.257 | 0.325
COPG1_Q9Y678_735_DCDPTTGETDDEGYEDEYVLEDLEVTVADHIQK (UniProt Q9Y678) | 0.0208 | -0.00395
COPG1_Q9Y678_813_FLGMHPCER (UniProt Q9Y678) | 0.0207 | -0.0381
COMT_P21964_145_LITIEINPDCAAITQR (UniProt P21964) | -0.025 | -0.045
CMAS_Q8NFW8_394_VGLSGAPADACSTAQK (UniProt Q8NFW8) | 0.076 | 0.0854
COPS7B_Q9H9Q2_110_CIPYSVLLK (UniProt Q9H9Q2) | 0.0397 | 0.0594
COPA_P53621_254_GHYNNVSCAVFHPR (UniProt P53621) | 0.00572 | -0.0672
COMP_P49747_348_WGDACDNCR (UniProt P49747) | 0.349 | 0.344
COPA_P53621_580_GNNVYCLDR (UniProt P53621) | 0.0345 | 0.193
CNOT1_A5YKK6_972_DYPQYCQHLASISHFMQFPHHLQEYIEYGQQSR (UniProt A5YKK6) | -0.058 | 0.282
COPB2_P35606_190_GVNCIDYYSGGDKPYLISGADDR (UniProt P35606) | 0.0932 | -0.0883
COPB2_P35606_234_TCVQTLEGHAQNVSCASFHPELPIIITGSEDGTVR (UniProt P35606) | 0.132 | -0.0309
COLGALT1_Q8NBJ5_283_QAEVQMYVCNK (UniProt Q8NBJ5) | 0.453 | 0.412
COPG2_Q9UBF2_258_ETEDGHESPLFDFIESCLR (UniProt Q9UBF2) | 0.145 | -0.0335

Target | probe-labelled cysteine peptide fold change (10 µM) | probe-labelled cysteine peptide fold change (50 µM)
COL4A3BP_Q9Y5P4_529_KIPALTENDPETWIVCNFSVDHDSAPLNNR (UniProt Q9Y5P4) | 0.24 | -0.169
COPS4_Q9BT78_232_HALHCTILASAGQQR (UniProt Q9BT78) | 0.0512 | 0.0666
COLGALT1_Q8NBJ5_412_GELGCFLSHYNIWK (UniProt Q8NBJ5) | -0.0165 | -0.0875
COG3_Q96JB2_363_ELLLGPSIACTVAELTSQNNRDHCALVR (UniProt Q96JB2) | -0.436 | 0.793
COP1_Q8NHY2_704_DRKEDDTNEFVSAVCWR (UniProt Q8NHY2) | -0.384 | 0.0888
COMTD1_Q86VU5_45_EQCLLPPEDSR (UniProt Q86VU5) | 0.0432 | -0.019
CNPY2_Q9Y2B0_171_RTDLCDHALHISHDEL (UniProt Q9Y2B0) | 0.118 | -0.0283
COPG1_Q9Y678_97_EMSCIAEDVIIVTSSLTK (UniProt Q9Y678) | 0.117 | -0.0498
CNST_Q6PJW8_408_LQLAQTEACQDVAR (UniProt Q6PJW8) | -0.158 | -0.143
CNTN1_Q12860_158_GMVLLCDPPYHFPDDLSYR (UniProt Q12860) | 0.255 | 0.299
COMMD3_Q9UBI1_62_HCHAAAATYILEAGK (UniProt Q9UBI1) | 0.233 | 0.0397
CNOT2_Q9NZN8_175_SSPSIICMPK (UniProt Q9NZN8) | -0.102 | -0.231
COMT_P21964_83_ILNHVLQHAEPGNAQSVLEAIDTYCEQK (UniProt P21964) | 0.0541 | -0.00479
CNST_Q6PJW8_292_CSTQLLVSEDPK (UniProt Q6PJW8) | -0.296 | -0.178
CNP_P09543_335_AHITLGCAADVEAVQTGLDLLEILRQEK (UniProt P09543) | -0.271 | -0.0579
COPS7B_Q9H9Q2_240_ECPPHAEQR (UniProt Q9H9Q2) | -0.0885 | -0.0229
CNBP_P62633_119+122_CYSCGEFGHIQK (UniProt P62633) | -0.0812 | -0.00549

Copied from the listing for reference:
Target | probe-labelled cysteine peptide fold change (10 µM) | probe-labelled cysteine peptide fold change (50 µM)
COP1_Q8NHY2_704_DRKEDDTNEFVSAVCWR (UniProt Q8NHY2) | -0.384 | 0.0888
COMTD1_Q86VU5_45_EQCLLPPEDSR (UniProt Q86VU5) | 0.0432 | -0.019
